In PubChem BioAssay AID1508600 (Functional Genomics Laboratory (NCATS/FGL), 2020):
About 3,700 (7%) of roughly 53,000 sequences were called active.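 How the source made its calls: active means gene knockdowns whose robust z-score for IL-1 alpha signal is at least 2 or at most -2, so actives lie on both sides; inactive means the rest.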 This is one part of the list.

assay: Components of the Cytosolic LPS Sensing Pathway: Gene Identification via Genome-wide siRNA Screen; conditions: RAW264.7 macrophages, IL-1a HTRF, actives lie on both sides, screened at 100 nM (by protocol), cells primed 5 h with Pam3CSK4 first;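 further: robust z of the log signal after scaling to non-targeting control siRNA wells of the plate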
How it was run: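 Three distinct siRNAs per gene were tested singly at 100 nM in RAW264.7 macrophages. Following Pam3CSK4 priming and 24 hour LipidA transfection, IL-1a secretion was read by HTRF.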

Sequence | z-score
AGAAACUGUUGGGUGAAAATT against Olfr329 | inactive: -0.11
GGUUGUGUUUUGAUAGGAATT against Slfn5 | inactive: -0.353
GCAUGUAUAACAGACCCAUTT against Tex47 | inactive: 0.928
GGAGAGCAUCCUGAAGACGTT against Arl13b | inactive: -0.363
GCUACUUGCUCAUACAAAGTT against Rag2 | inactive: 0.65
GCUUCUGGUUUUCGGCUAUTT against Sfswap | inactive: 0.427
GCAAGCAAUAGAGGAACCUTT against Rnf38 | inactive: 0.0643
GGAUCAACAGAGGUUGGCATT against Aldh1a7 | active: -2.03
GGAUUUUUUUUCCAGAAGCTT against Apln | inactive: 0.9
CCUGUUUUCCGACUUGUUGTT against Il4ra | inactive: 0.809
GCUAACAGUGGGUUAUUUATT against Tgfb2 | inactive: 0.123
CGUGUACCAGCUACCUAAGTT against Phc2 | inactive: -1.31
GCCUCUUGCCUGAUUACCUTT against Scgb1b2 | inactive: 1.53
AAGAGCAUUAGUGCACAGATT against Gm5334 | inactive: 0.267
GCUGAACGACAAUAAGGGCTT against Ltbp1 | inactive: 0.467
CCCGAAACAUCAUCAAGUATT against Olfml2b | inactive: 1.61
CGUACAAGACCAACAGAAGTT against Prag1 | inactive: -0.825
GGGAGAAAAUCAAAGUAAUTT against Trim13 | inactive: -0.464
GGGAUUUUAAGAGUUGACUTT against Cyp3a41a | inactive: -1.41
GCAACAAUAAAUCGUACAGTT against Nupr1 | inactive: 0.246
CCUACCCGAUUAUUCUUACTT against C2cd2l | inactive: 0.125
GGCUAUGCAAGUGGAGAGCTT against Nfat5 | inactive: -0.311

Sequence | z-score
GCCUAUGACUACCUCGAGUTT against Rhob | active: -2.01
GCUCAUCUAAGAGGAAUGATT against Jtb | inactive: -1.81
GGAGAGGAACUCAGAACCATT against Lrmp | inactive: -0.576
GGAUUUUCUAAAAAGACACTT against Slc23a1 | inactive: 0.623
GGUUAUGUGGAUGAAAGAUTT against Mybpc2 | inactive: -0.89
GGAUGGUAUAUGAUGAGAUTT against Slc7a15 | inactive: -1.57
CCCUGGAAAUUAGAUAACATT against Aldob | inactive: 0.74
GCACGUUAGUAAGUAGUUATT against Ubtd2 | inactive: 1.04
GCAUCUCAGCUCUGAUUUATT against Fgfbp3 | inactive: 0.758
GGACCUGACCAAUUGAGCUTT against Rusc1 | inactive: -0.799
GGUGCAAGCUUUGAGAGGATT against Hsf4 | inactive: 0.853
GACCUUCGUUAGCAUUACGTT against Pfn1 | inactive: 0.65
CCCUGAAUGUUCGAGGAGATT against Ghdc | inactive: 0.00147
CGUGUUGUACUACGUAUAUTT against Abtb1 | inactive: -0.172
GCCACUUUUACCCUCAAGCTT against Zgrf1 | inactive: -0.628
CGUAGAGCUCAGAGAAUUCTT against Dhx58 | inactive: 0.614
CGGAGUAGCGAUUAUGGUGTT against Art5 | inactive: -0.535
CGGGAUAGACAUGAGAGCUTT against Cemip2 | inactive: -0.37
GGUGCUUUUGCUUAGUGAUTT against Impg2 | inactive: 0.433
GGUCUAUGUACUGUCCUGATT against Otop2 | inactive: 0.0413
GGAGCCCUGUGUCUUGAGUTT against Ccl19 | inactive: -0.39
GGAAGACCUUGAAUUCCAGTT against Tspan31 | active: 2.87

Already shown: an excerpt of the list.
Sequence | z-score
CCCUGGAAAUUAGAUAACATT against Aldob | inactive: 0.74
GCACGUUAGUAAGUAGUUATT against Ubtd2 | inactive: 1.04

Following part.

Sequence | z-score
GGAUAAGAAGAAAUGUCUGTT against Septin6 | inactive: -0.69
CGUUAGUGACAUGCUCAUGTT against Olfr517 | inactive: -0.484
GGAGAUGAGAAGAUGGGCGTT against Ppp1r8 | inactive: 0.0692
CCCACAAGGUUAAGAUAUATT against Col14a1 | inactive: 0.604
GGGAACUGACAAAUGGAAGTT against Samsn1 | inactive: -0.0777
GGAAGCGUAGUAAAAAGAGTT against Ermp1 | inactive: -0.702
GCGAUUUGACAACGAGACCTT against Bmp7 | inactive: 0.899
GGGCUAGAUAUUCCAUGCATT against Olfr585 | inactive: -1.82
GAUCAAUGUGAAGGACAUCTT against Cyp2c50 | inactive: 1.05
GGAAUUGGCAUGAACGAACTT against Psmd9 | inactive: 1.23
GGCCUGUUUUUAAAAAGGATT against Tspan7 | inactive: 0.3
GGAACACCCGGAUUACAAGTT against Sox1 | inactive: 1.81
GGAGAUCAACAGGAUUUUGTT against Gna15 | inactive: -1.35
GGAUGCUCUGAAGAGACAUTT against Olfr493 | inactive: -0.0892
CCCUAGACUUGAGAGUUUUTT against Eif2s1 | inactive: 1.29
GGUUUCCUUUGUCUGUUUUTT against 9530091C08Rik | inactive: -0.509
CCUAAUAGUACCAACAAAATT against Nxf2 | inactive: 0.217
CGGAAUCAUACAUUGGUUCTT against Zfp217 | inactive: 1.22
CCUACGCCAAGCAGUAUGATT against Mcm3 | inactive: 0.286
GGUCUUCUUCGUGUUCAUCTT against Olfr281 | inactive: -0.0815
CCCGAUGAGAGACAUUUUATT against Rrm2 | inactive: -0.547
GGUUGAGGACAUAAGACCCTT against Vwa1 | inactive: -1.63

Copied from the list.
z-score, GGAUGGUAUAUGAUGAGAUTT against Slc7a15 reads inactive: -1.57
z-score, GGGAUUUUAAGAGUUGACUTT against Cyp3a41a reads inactive: -1.41

Looked up one by one from above (2):
Sequence | z-score
GGUUGUGUUUUGAUAGGAATT against Slfn5 | inactive: -0.353
GGAGAUGAGAAGAUGGGCGTT against Ppp1r8 | inactive: 0.0692

Following part:

Sequence | z-score
GCUACAUUUCAUCAGCAAATT against Gzf1 | inactive: 0.168
GCAUGCCUAAAUUUGGGACTT against Fyb | inactive: 0.805
GGGUGCUUAAUAAACAUAATT against Slc22a8 | inactive: 0.65
GGUACUCAAGGUAGGCUGCTT against Oasl1 | inactive: -0.28
GCUCUAUUCUCCAACUCUGTT against Pof1b | inactive: 0.154
GCAGACAUGAACCGACUCATT against Gid8 | inactive: -0.614
GGAGUUCAACUAGAUGUGGTT against Bcl2l13 | inactive: -1.2
GGGACAGUUUGGUGAAGGCTT against Pear1 | inactive: -0.588
CCAGAUCAGAUCCAGUACATT against Gjc1 | inactive: 0.772
GCUGAGGAGGUUGUAUCAUTT against Fundc2 | inactive: 1.55
GCGAAAUGCACCAGAUCAGTT against Kbtbd7 | inactive: -0.426
GGGUUUCCUUAUGAGAAAGTT against Mien1 | inactive: -0.606
GCCAAGAAAGAUCAUUGACTT against Far2 | inactive: -0.703
GGCUGUUACAAGAACGUAGTT against 5031434C07Rik | inactive: -1.99
GGAUUAUGGACCUCUUGGUTT against 4930595M18Rik | inactive: 0.554
GUGGAAGAAGGAAAAGCCCTT against Lrp2bp | inactive: 1.06
GGAGCGAUUCACAAAUUACTT against Tapt1 | active: 3.05
CCCAAUUCAGGUUUUUAACTT against Midn | inactive: 0.989
GGAUAUUGGUGGCACUUUATT against Med6 | inactive: -0.315
GGCAUCAAUGAGUUCGCAUTT against Slc45a1 | inactive: -0.818
UCCUUCAUUUGAAUGCAAGTT against H2bu1-ps | inactive: -0.304
CGUGGUAGACACUGUGGUATT against Plin1 | inactive: 1.61

Sequence | z-score
GGCAAUGGUUCAGCAGUGGTT against Eef1e1 | inactive: -0.564
GGGAUUCUGAGCUUUCUGGTT against Bpifa5 | inactive: -0.909
CCUCUUCACUAUAGCACUCTT against Olfr1019 | inactive: -0.718
GCUCUGCUAUCGUGAUCUGTT against Kctd13 | inactive: 1.68
GCUGGUAUACGAGACCGUATT against Fshb | inactive: 1.05
GGCUUUUAGAUUCAACGGCTT against Sun2 | inactive: 1.53
GGUCCUACAUCUCCUUCGATT against Cars | inactive: -0.194
GGAUAAUGUGGAUAGAACUTT against Slco1a5 | inactive: 1.38
CGGCUACAACACAUACGCCTT against Fgf22 | inactive: 0.00337
GGCUACUGUAGGAAGAAAUTT against Defb20 | inactive: 1.7
GGACUGGUACAAGACAAUGTT against Sorbs2 | inactive: 0.532
GGUUCCUUAUUGGUUUCAGTT against Fpr2 | inactive: 1.5
GGAAACACCUAUCUUCUGGTT against Npdc1 | inactive: -0.0666
GGAGGUUAUGAUUCUUCACTT against Fn3krp | inactive: 0.924
CCCUGUAAAGAUCGAGAAGTT against Zfp296 | inactive: 0.241
GGAACACCAUAUGAAGGCGTT against Ube2h | inactive: 1.97
GGGUUGUCCUGAACUUUAATT against Npr1 | inactive: 0.236
GCCUAGGGUUUCUGAAAUGTT against Rpe | inactive: 0.249
GCUGCUGAAUUGAAUCAUCTT against Krtap4-7 | inactive: 0.933
